{"sequences": {"note": "Protein sequences, listed by entry. Tags and fused reporters are not part of them.", "UniProt P08684, whole entry": "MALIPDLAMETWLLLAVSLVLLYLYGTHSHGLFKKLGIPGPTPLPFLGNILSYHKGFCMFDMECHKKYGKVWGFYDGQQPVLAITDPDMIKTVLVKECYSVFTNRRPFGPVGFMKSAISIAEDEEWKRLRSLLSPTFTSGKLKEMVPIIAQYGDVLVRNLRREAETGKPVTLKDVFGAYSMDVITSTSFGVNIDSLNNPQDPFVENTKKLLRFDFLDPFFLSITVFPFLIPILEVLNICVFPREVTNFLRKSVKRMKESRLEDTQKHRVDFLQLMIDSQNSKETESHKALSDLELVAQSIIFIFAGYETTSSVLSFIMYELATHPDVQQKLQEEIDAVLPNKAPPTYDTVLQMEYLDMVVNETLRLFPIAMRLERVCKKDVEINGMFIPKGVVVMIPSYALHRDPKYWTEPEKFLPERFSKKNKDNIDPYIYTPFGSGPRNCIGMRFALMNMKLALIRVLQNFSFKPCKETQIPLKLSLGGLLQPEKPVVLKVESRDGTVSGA"}, "source": "patent US9441275B2", "about": "“Polymorphism in CYP3A4 gene affecting drug metabolizing and uses thereof” (Ohio State Innovation Foundation, priority 2009, dated 2016)", "biological_target": "CYP3A4 (Homo sapiens, UniProt P08684)", "details": "in vivo"}
{"molecule": "CC(C)c1c(C(=O)Nc2ccccc2)c(-c2ccccc2)c(-c2ccc(F)cc2)n1CC[C@@H](O)C[C@@H](O)CC(=O)O", "note": "[Atorvastatin, atorvastatin]", "values": [{"measurement": "Dose ratio (T carrier/non-Tcarrier)", "value": 0.22}]}
